Results deposited as PubChem BioAssay AID504808 (Drosophila RNAi Screening Center, 2011)
Assay: 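Fly genes required to hold E2F transcription in check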 (primary screen). Cell system: Drosophila S2 cells. Reagents: long dsRNA against Drosophila genes. Measurement: 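Dual luciferase plate measurements; E2F-specific signal taken as firefly over Renilla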. Scale: E2F firefly: higher = more E2F reporter activity; Renilla normaliser: higher = more normaliser reporter signal. Hit rule: 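a knock-down counted as active when the firefly/Renilla E2F signal rose above 50%, a threshold chosen arbitrarily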.
The deposit covers about 21,000 reagents; shown is a random part of those with a known target gene and a result. Of all reagents, 18 (0.084%) are marked active. 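Raw counts without plate normalisation, one of two replicates; the ratio scores behind the calls were not deposited.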 Reagents against one gene are numbered here. A plus sign joins genes that one reagent is predicted to hit. Not stated in the record: the amount of reagent, the time to read-out.

no.	target gene	reagent	E2F firefly, rep 1	Renilla normaliser, rep 1	Outcome
1	CG11696	1	8032	716	inactive
2	grnd (grindelwald)	1	1.04e5	4168	inactive
3	ppk19 (pickpocket 19)	1	1.30e5	7347	inactive
4	Or45a (Odorant receptor 45a)	1	1.37e5	4861	inactive
5	CG6441	1	1.56e5	5464	inactive
6	CG31546	1	59643	2983	inactive
7	CG34300	1	68264	2470	inactive
8	vtd (verthandi)	1	1.44e5	7121	inactive
9	CG18542 + CG32939	1	62498	3337	inactive
10	Osi12 (Osiris 12)	1	1.14e5	5651	inactive
11	Teh2 (tipE homolog 2)	1	97523	4049	inactive
12	hig (hikaru genki)	1	71174	4179	inactive
13	CG3632	1	62841	2116	inactive
14	CG3632	2	8850	732	inactive
15	Fum3 (Fumarase 3)	1	1.19e5	6771	inactive
16	CG7856	1	1.12e5	4523	inactive
17	wdb (widerborst)	1	78691	5820	inactive
18	Patr-1 (Protein associated with topo II related - 1)	1	72660	4607	inactive
19	CG3589	1	86288	3004	inactive
20	CG3008	1	1.45e5	5083	inactive
21	CG3777	1	59608	3155	inactive
22	TM9SF2 (Transmembrane 9 superfamily protein member 2)	1	90394	4128	inactive
23	CG8870	1	1.01e5	5583	inactive
24	CG15043	1	2.20e5	5626	inactive

Records above whose target name begins with O or o:
target gene	reagent	E2F firefly, rep 1	Renilla normaliser, rep 1	Outcome
Or45a (Odorant receptor 45a)	1	1.37e5	4861	inactive
Osi12 (Osiris 12)	1	1.14e5	5651	inactive

The listing continues.
no.	target gene	reagent	E2F firefly, rep 1	Renilla normaliser, rep 1	Outcome
25	bsh (brain-specific homeobox)	1	54037	3374	inactive
26	Pvf3 (PDGF- and VEGF-related factor 3)	1	1.51e5	4486	inactive
27	Pvf3 (PDGF- and VEGF-related factor 3)	2	1.42e5	4637	inactive
28	Pvf3 (PDGF- and VEGF-related factor 3)	3	1.40e5	4598	inactive
29	Pvf3 (PDGF- and VEGF-related factor 3)	4	1.50e5	5298	inactive
30	CG11151	1	1.48e5	13471	inactive
31	Arms (Ankyrin repeat-rich membrane spanning)	1	53918	3421	inactive
32	Arms (Ankyrin repeat-rich membrane spanning)	2	1.29e5	4720	inactive
33	Arms (Ankyrin repeat-rich membrane spanning)	3	78235	3508	inactive
34	Arms (Ankyrin repeat-rich membrane spanning)	4	86673	3934	inactive
35	Pebp1 (Phosphatidylethanolamine-binding protein 1)	1	1.38e5	7172	inactive
36	CG17726	1	54259	3517	inactive
37	CG32719	1	81291	2767	inactive
38	Pkc98E (Protein C kinase 98E)	1	2002	1024	inactive
39	crb (crumbs)	1	77475	4058	inactive
40	CG1703	1	7774	932	inactive
41	Actn3 (alpha actinin 3)	1	1.24e5	5990	inactive
42	CG12971	1	1.54e5	6040	inactive
43	PIP5K59B (Phosphatidylinositol 4-phosphate 5-kinase 59B)	1	59398	3524	inactive
44	PIP5K59B (Phosphatidylinositol 4-phosphate 5-kinase 59B)	2	99505	4086	inactive
45	tgo (tango)	1	64700	2975	inactive
46	GramD1B (GRAM domain containing 1B)	1	1.59e5	5037	inactive
47	GramD1B (GRAM domain containing 1B)	2	1.02e5	3674	inactive
48	SP (Sex Peptide)	1	1.19e5	6506	inactive
49	CG4382	1	1.43e5	5365	inactive
50	Mi-2	1	1.10e5	6035	inactive
51	DopEcR (Dopamine/Ecdysteroid receptor)	1	71695	3263	inactive
52	CG13577	1	1.12e5	4830	inactive
53	HtrA2 (HTRA2-related serine protease)	1	1.15e5	5604	inactive
54	thr (three rows)	1	69629	4360	inactive
55	CG32237	1	1.03e5	4571	inactive
56	CG32237	2	97801	4125	inactive
57	Grl65a (Gustatory receptor-like 65a)	1	1.36e5	5010	inactive
